# Reference: the supplement of paper PMC12889115
# The list shows a part of the results. Values are raw readings; no control value is given beside them.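 In the initial screen, polymyxin B was used at a concentration that permeabilizes Salmonella's outer membrane but not its inner membrane. Maximum growth was set by DMSO wells with or without polymyxin B. Since plates varied, data were ranked per plate, and compounds giving the lowest OD600 advanced as hits.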
# Tested on: Salmonella enterica serovar Typhimurium SL1344
# Assay: bacterial growth OD600 after 18 h with compound and polymyxin B; higher = more bacterial growth (less inhibition)
# Conditions: 50 µM, Mueller-Hinton broth
SMILES,bacterial growth OD600 (polymyxin B 1 µg/mL),bacterial growth OD600 (polymyxin B 0.75 µg/mL)
CCn1ccnc1CN(C)C(=O)c1csc2nc(-c3ccccc3C)cn12,0.783,
COc1cccc(OCc2cc(C(=O)N3CCN(C4CCCCC4)CC3)n[nH]2)c1,0.863,
COc1ccc(C(=O)N2CCC(n3nccc3NC(=O)CC(C)C)CC2)cc1OC,1.31,
Cc1ccc(-n2ncc3c2CC(C)(C)CC3NC2CCOCC2)cc1 (stereo not given),0.986,
COC(=O)CCCC(=O)N1CCCC(CCc2ccccc2)C1 (stereo not given),,0.737
Cc1cccc(-c2cccc(NC(=O)C3CCCN3C(=O)c3ncoc3C)c2)c1 (stereo not given),,0.533
COc1cccc(-n2cc(CN(C)Cc3nc(-c4ccccc4)no3)cn2)c1,0.787,
COCCCN1C(=O)CC(CC(=O)N(C)CCC2CCCCO2)(c2ccccc2OC)C1=O (stereo not given),,0.875
CO[C@H]1[C@H](NC(=O)c2ccco2)c2ccccc2C12CCN(Cc1c(F)ccc(F)c1F)CC2,,0.662
CN(C(=O)c1ccco1)C(Cc1ccc(F)cc1F)C1CCN(Cc2cc(Cl)ccc2O)CC1 (stereo not given),,0.002
O=C(NCc1ccncc1)c1ccc(OC2CCN(C3CCCCCC3)CC2)cc1,1.04,
O=C(Cc1ccc(F)cc1)N1CCC(C2(c3ccccn3)NC(=O)N(CC3CCCO3)C2=O)CC1 (stereo not given),,0.886
COCCN1C(=O)NC(Cc2ccc(F)cc2)(C2CCN(C(=O)CCc3ccc(C)cc3)CC2)C1=O (stereo not given),,0.856
CCOC(=O)C1(Cc2ccc(F)cc2)CCCN(C(=O)c2ccc(C)s2)C1 (stereo not given),1.03,
CCN1CCN(C2(C(=O)NCCCC3CCCC3)Cc3ccccc3C2)CC1,,0.005
CSc1ccccc1OCc1cc(C(=O)N(C)Cc2c(C)n[nH]c2C)no1,1.06,
COc1ccc(OC2CCN(C(=O)C3CC3)CC2)c(C(=O)NCCn2ccnc2C)c1,1.22,
CCOC(=O)C1CCN(C(=O)c2cc(Cn3nc(C)cc3C)[nH]n2)CC1,1.24,
Cc1ccn(CC(=O)NCCN2Cc3ccccc3OC(c3ccsc3)C2)n1 (stereo not given),,0.736
CCC(O)C1CCN(C(=O)c2cn(C/C=C/c3ccccc3)nn2)CC1 (stereo not given),0.82,
CC[C@H](C)[C@H](NC(=O)c1ccc(OC2CCN(C(C)=O)CC2)c(OC)c1)C(=O)OC,0.92,
COCCN(CC1CCN(Cc2ccccc2OC)CC1)C(=O)C1CC=CCC1 (stereo not given),0.909,
O=C(CCC1CCN(C(=O)NC2CCCCC2)CC1)Nc1ccccc1,0.909,
COCC(=O)Nc1cc(C(=O)N2CCCCC2c2nccs2)cc2nc(-c3cccnc3)n(C)c12 (stereo not given),,0.863
c1csc(C2CCCN2c2nc3nonc3nc2NC2CCCC2)n1 (stereo not given),0.675,
O=C(Cn1nnnc1CN1CCOCC1)N1CCN(C2CCc3ccccc3C2)CC1 (stereo not given),0.96,
CCCN1CCC(NC2CC(=O)N(Cc3cccc(F)c3)C2)CC1 (stereo not given),0.824,
Cc1ccc(NC2CCCN(C(=O)c3cn4ccsc4n3)C2)cc1C (stereo not given),1.32,
Cc1ccc(SC2CCN(Cc3nc(Cc4ccccc4F)no3)CC2)cc1,0.828,
CCOC(=O)C1(Cc2ccccc2)CCN(Cc2cccc(F)c2F)CC1,0.79,

# 3 compounds out of the list, sorted by heavy-atom count, high to low.
SMILES,bacterial growth OD600 (polymyxin B 1 µg/mL),bacterial growth OD600 (polymyxin B 0.75 µg/mL)
CN(C(=O)c1ccco1)C(Cc1ccc(F)cc1F)C1CCN(Cc2cc(Cl)ccc2O)CC1 (stereo not given),,0.002
CC[C@H](C)[C@H](NC(=O)c1ccc(OC2CCN(C(C)=O)CC2)c(OC)c1)C(=O)OC,0.92,
Cc1ccn(CC(=O)NCCN2Cc3ccccc3OC(c3ccsc3)C2)n1 (stereo not given),,0.736
